Measurements from paper PMC12667520, “SP3 and DEP1 Orchestrate Panicle Architecture by Jointly Regulating APO2 Expression in Rice”.
Results are given in words; binding and its absence hold for the method and conditions named. Binding calls can cover weak binding; strength is not graded here. Tags and fused reporters may be left off the sequences shown. For part of these data: Binding seen in cells or lysates may run through a third protein.

B1: DENSE AND ERECT PANICLE1 (DEP1), full length, Gal4 activation domain fusion (DEP1-AD) (protein, UniProt Q67UU9 1-426)
chain: MGEEAVVMEAPRPKSPPRYPDLCGRRRMQLEVQILSREITFLKDELHFLEGAQPVSRSGCIKEINEFVGTKHDPLIPTKRRRHRSCRLFRWIGSKLCICISCLCYCCKCSPKCKRPRCLNCSCSSCCDEPCCKPNCSACCAGSCCSPDCCSCCKPNCSCCKTPSCCKPNCSCSCPSCSSCCDTSCCKPSCTCFNIFSCFKSLYSCFKIPSCFKSQCNCSSPNCCTCTLPSCSCKGCACPSCGCNGCGCPSCGCNGCGCPSCGCNGCGLPSCGCNGCGSCSCAQCKPDCGSCSTNCCSCKPSCNGCCGEQCCRCADCFSCSCPRCSSCFNIFKCSCAGCCSSLCKCPCTTQCFSCQSSCCKRQPSCCKCQSSCCEGQPSCCEGHCCSLPKPSCPECSCGCVWSCKNCTEGCRCPRCRNPCCLSGCLC
B2: nLUC-DEP1 (protein, UniProt Q67UU9 1-426)
chain: MGEEAVVMEAPRPKSPPRYPDLCGRRRMQLEVQILSREITFLKDELHFLEGAQPVSRSGCIKEINEFVGTKHDPLIPTKRRRHRSCRLFRWIGSKLCICISCLCYCCKCSPKCKRPRCLNCSCSSCCDEPCCKPNCSACCAGSCCSPDCCSCCKPNCSCCKTPSCCKPNCSCSCPSCSSCCDTSCCKPSCTCFNIFSCFKSLYSCFKIPSCFKSQCNCSSPNCCTCTLPSCSCKGCACPSCGCNGCGCPSCGCNGCGCPSCGCNGCGLPSCGCNGCGSCSCAQCKPDCGSCSTNCCSCKPSCNGCCGEQCCRCADCFSCSCPRCSSCFNIFKCSCAGCCSSLCKCPCTTQCFSCQSSCCKRQPSCCKCQSSCCEGQPSCCEGHCCSLPKPSCPECSCGCVWSCKNCTEGCRCPRCRNPCCLSGCLC
B3: DEP1 in vector PVYNE (N-terminal YFP fragment fusion) (protein, UniProt Q67UU9 1-426)
chain: MGEEAVVMEAPRPKSPPRYPDLCGRRRMQLEVQILSREITFLKDELHFLEGAQPVSRSGCIKEINEFVGTKHDPLIPTKRRRHRSCRLFRWIGSKLCICISCLCYCCKCSPKCKRPRCLNCSCSSCCDEPCCKPNCSACCAGSCCSPDCCSCCKPNCSCCKTPSCCKPNCSCSCPSCSSCCDTSCCKPSCTCFNIFSCFKSLYSCFKIPSCFKSQCNCSSPNCCTCTLPSCSCKGCACPSCGCNGCGCPSCGCNGCGCPSCGCNGCGLPSCGCNGCGSCSCAQCKPDCGSCSTNCCSCKPSCNGCCGEQCCRCADCFSCSCPRCSSCFNIFKCSCAGCCSSLCKCPCTTQCFSCQSSCCKRQPSCCKCQSSCCEGQPSCCEGHCCSLPKPSCPECSCGCVWSCKNCTEGCRCPRCRNPCCLSGCLC
B4: nLUC-OSH6 (protein, UniProt Q9FP29 1-301)
chain: MEDLYSIHPGISRVGGAASEASGVGVVVGGGGGSSSSDLTELMKAQIAGHPRYPTLLSAYIECRKVGAPPEVASLLKEIGRERRAGGGGGGAGQIGVDPELDEFMEAYCRVLVRYKEELSRPFDEAASFLSSIQTQLSNLCSGATSPPATTATHSDEMVGSSDEDQCSGETDMLDIGQEQSSRLADHELKEMLLKKYSGCLSRLRSEFLKKRKKGKLPKDARSALLEWWNTHYRWPYPTEEDKLRLAARTGLDPKQINNWFINQRKRHWKPSDGMRFALMEGVAGGSSGTTLYFDTGTIGP
B5: DEP1^Gγ-like (domain or fragment, UniProt Q67UU9 24-107)
chain: GRRRMQLEVQILSREITFLKDELHFLEGAQPVSRSGCIKEINEFVGTKHDPLIPTKRRRHRSCRLFRWIGSKLCICISCLCYCC

Assays:
[1] = molecular target: T1, FLAG-DEP1 (rice (Oryza sativa)) (UniProt Q67UU9); experiment: co-IP; 3xFLAG-DEP1 and 3xHA-SP3 co-expressed in rice protoplasts; extract in 50 mM Tris-HCl pH 7.5, 150 mM NaCl, 0.5% Triton X-100; FLAG beads 4 h at 4 °C; blot with anti-FLAG and anti-HA
T1 sequence: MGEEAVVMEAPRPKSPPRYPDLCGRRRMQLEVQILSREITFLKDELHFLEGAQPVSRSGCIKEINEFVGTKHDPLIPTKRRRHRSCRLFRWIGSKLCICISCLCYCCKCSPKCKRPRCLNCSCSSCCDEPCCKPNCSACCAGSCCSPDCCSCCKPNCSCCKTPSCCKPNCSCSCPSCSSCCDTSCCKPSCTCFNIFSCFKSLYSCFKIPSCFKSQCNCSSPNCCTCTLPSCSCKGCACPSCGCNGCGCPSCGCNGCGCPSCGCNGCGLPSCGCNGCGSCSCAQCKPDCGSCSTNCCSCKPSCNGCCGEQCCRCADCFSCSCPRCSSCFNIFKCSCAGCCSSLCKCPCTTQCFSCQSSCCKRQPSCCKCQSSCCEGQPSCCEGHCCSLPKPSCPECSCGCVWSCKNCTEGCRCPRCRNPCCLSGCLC

[2] = molecular target: zinc finger DNA-binding domain of SP3 (two-hybrid construct) (rice (Oryza sativa ssp. japonica, Zhonghua 11)); experiment: two-hybrid; pairwise, Matchmaker system (Clontech), pGADT7 and pGBKT7, yeast AH109, test medium SD/-Leu-Trp-His-Ade
[3] = molecular target: cLUC-SP3 (rice (Oryza sativa)); experiment: split reporter; firefly luciferase complementation imaging (LCI), nLUC and cLUC fusions co-expressed in N. benthamiana leaves, 25 °C for 48 h, 1 mM potassium luciferin
[4] = molecular target: SP3 in vector PVYCE (C-terminal YFP fragment fusion) (rice (Oryza sativa)); experiment: split reporter; BiFC, PVYCE and PVYNE YFP fragments, rice protoplasts, 12-16 h in the dark, confocal microscopy

Row | Molecule | binding [3] | other results
1 | HA-SP3 (rice (Oryza sativa)) |  | binding [1]: binds
2 | B1 |  | binding [2]: binds
3 | B2 | binds | 
4 | B3 |  | binding [4]: binds
5 | B4 | no binding | 
6 | B5 | no binding | 
